Source: PubChem BioAssay AID2685 (National Center for Advancing Translational Sciences (NCATS), 2010)
Hit rate of the full screen: of about 320,000 compounds, about 2,100 (0.66%) were called active. Inconclusive means that the source gave no clear call. Such entries were picked first, then a sample of the others. Calls come from the whole dose curve; as a rule, active = well fitted inhibition curve with a large enough effect in the signal ratio, with a control signal flat (not every such curve was filed as active); inconclusive = small, poorly fitted or top-dose-only effect, or effect the other way, or a change in a side signal; inactive = flat fitted curve, though single readings scatter; the % refers to the signal ratio. Where the call is inconclusive, the potency comes from a doubtful curve fit.

experiment: qHTS Assay for Lipid Storage Modulators in Drosophila S3 Cells; details: BODIPY lipid droplet fluorescence, 18-24 h, cells fed with added oleic acid; lipid storage change, negative = inhibition: at 46.1 µM (top of the series) unless noted
Summary of the method: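 Laser-scanning cytometry quantifies lipid droplet accumulation (500–530 nm total intensity; droplet/cell object ratio) in oleic acid-fed (400 uM added) Drosophila S3 cells treated with a concentration series. 20 uM Triacsin C defined 100% inhibition.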
% is set by controls: 0 for no effect and ±100 for the full control effect; potency is the fitted concentration of half-maximal effect.

Row | Compound | lipid storage change, negative = inhibition | Potency | outcome
1 | Cc1cc(Br)ccc1OCCCCN1CCC(C)CC1 | inconclusive: -52.5% | – | –
2 | CCC(c1nnnn1CCOC)N1CCN(c2cccc(C(F)(F)F)c2)CC1 (stereo not given) | inconclusive: 16.7% | – | –
3 | O=C(Cc1ccc(S(=O)(=O)N2CCCCC2)cc1)NCc1ccc(Cl)cc1 | inconclusive: -14.6% | – | –
4 | COc1ccc(CCC(=O)Nc2cc(Cl)ccc2N2CCN(C)CC2)cc1 | – | inconclusive: 4.11 µM [falling, single point] | –
5 | O=C(COc1ccc(C(=O)Nc2ccc(Cl)cc2)cc1)NCc1ccccc1 | inconclusive: 28% | – | –
6 | Cc1c(Cl)c([N+](=O)[O-])nn1CCCC(=O)N1CCN(c2ccccc2)CC1 | – | inconclusive: 18.4 µM [falling, partial curve, poor fit] | –
7 | CCc1ccc(C(=O)Nc2nc(C)cs2)s1 | inconclusive: -30.1% | – | –
8 | COC(=O)c1cc(C(=O)NNC(=O)c2ccc3c(c2)OCO3)cc([N+](=O)[O-])c1 | – | inconclusive: 6.51 µM [activator, single point] | –
9 | COc1ccc(CN(CCCN2CCOCC2)S(=O)(=O)N(C)C)cc1OC | inconclusive: -4.94% | – | –
10 | CCOC(=O)C1=C(C)N=c2s/c(=C/c3ccc(OCC(=O)O)cc3)c(=O)n2C1c1cc(OC)c(OC)c(OC)c1 (stereo not given) | inconclusive: -28.4% | – | –
11 | N#Cc1ccc(NC(=S)Nc2ccccc2)cc1 | – | inconclusive: 16.4 µM [activator, partial curve] | –
12 | Cc1ccc(-n2ncc3c(=O)n(CC(=O)N4CCCCCC4)cnc32)cc1 | inconclusive: 15.9% | – | –
13 | Cc1ccccc1NC(=O)c1cccc2nccnc12 | inconclusive: -14.2% | – | –
14 | O=C(CCCn1c(SCC(=O)NC2CCCCC2)nc2ccccc2c1=O)NCC1CCCO1 (stereo not given) | inconclusive: 23.6% | – | –
15 | C[N+]1(CC(=O)OCCCc2ccccc2)CCCC1 | inconclusive: -7.53% | – | –
16 | Cn1c(CCNC(=O)c2ccco2)nc2cc(NS(=O)(=O)c3ccc(Cl)cc3)ccc21 | – | inconclusive: 3.66 µM [rising, partial curve] | –
17 | COc1ccc(C(=O)c2sc(Nc3ccccc3)c(C(=O)Nc3ccc(OC)c(OC)c3)c2N)cc1 | inactive: 9.9% | – | –
18 | Cc1cc(Cl)c(S(=O)(=O)N2CCCCCC2)cc1OCC(=O)NC1CCCCC1 | inconclusive: 222% | – | –
19 | CN(C(=O)COc1ccc(Br)cc1Cl)C1CCCCC1 | inconclusive: -11.1% | – | –
20 | CCc1nn(CC(=O)NCc2cccnc2)c(=O)c2cc3occc3n12 | inconclusive: -2.4% | – | –
21 | CCc1c(C(=O)Nc2cc(C(=O)OC)ccc2C)csc1C | – | inconclusive: 6.51 µM [activator, partial curve] | –
22 | CCOC(=O)CN1C(=O)N[C@H](c2ccc(Br)cc2)C(C(C)=O)=C1C | inconclusive: 0.823% | – | –
23 | CC(C)N1C(=O)/C(=C\c2nc3ccccc3c(=O)n2-c2ccccc2)c2ccccc21 | – | inconclusive: 18.4 µM [cytotoxic, single point] | –
24 | CCSc1nnc2c(n1)OC1(CCCC1)Nc1ccccc1-2 | – | inconclusive: 0.651 µM [rising, full curve, poor fit] | –
25 | CCOc1ccccc1CN1CCN(CC2CC2)CC1CCO (stereo not given) | – | inconclusive: 29.1 µM [activator, single point] | –

Single records, from the list above. Values in the order: lipid storage change, negative = inhibition	Potency	outcome
C[N+]1(CC(=O)OCCCc2ccccc2)CCCC1 in the list: inconclusive: -7.53%	–	–
CC(C)N1C(=O)/C(=C\c2nc3ccccc3c(=O)n2-c2ccccc2)c2ccccc21 in the list: –	inconclusive: 18.4 µM [cytotoxic, single point]	–

Next part

Row | Compound | lipid storage change, negative = inhibition | Potency | outcome
26 | CCOc1cc(N2CCOCC2)c(OCC)cc1NC(=O)C1=COCCO1 | – | inconclusive: 1.46 µM [activator, full curve, poor fit] | –
27 | CCC(=O)Nc1cccc(NC(=O)CSc2nnc(-c3ccc(NS(C)(=O)=O)cc3)n2CC)c1 | inconclusive: -137% | – | –
28 | Cn1c(C(=O)N2CCC(C(=O)NCc3ccccc3)CC2)cc2sccc21 | inconclusive: 96.8% | – | –
29 | Cc1nonc1NC(=O)CSc1nc2ccccc2cc1C#N | inconclusive: 9.31% [at 9.22 µM] | – | –
30 | Cc1ccc(C(=O)Nc2cc3c(cc2N2CCCCC2)n(C)c(=O)n3C)cc1 | – | – | inactive [at 46.1 µM]
31 | O=C(CSC1=NCCS1)N1CCCC1 | – | inconclusive: 0.259 µM [falling, full curve] | –
32 | CCOc1ccc(NC(=O)C2CC(=O)OC2c2ccccc2)cc1 (stereo not given) | – | inconclusive: 32.6 µM [falling, single point] | –
33 | O=C(Nc1ccccc1C(=O)NCCCN1CCOCC1)c1ccc(F)cc1F | inactive: 0.737% | – | –
34 | O=C(c1cc([N+](=O)[O-])ccc1Cl)N1CCN(c2ccc([N+](=O)[O-])cc2)CC1 | inconclusive: -44% | – | –
35 | CCCc1cc(C(=O)Nc2sc3c(c2C(=O)OCC)CCCC3)no1 | inconclusive: 7.55% | – | –
36 | COCC1CCN(C(=O)CCc2nnc(C3(c4ccc(Cl)cc4)CCC3)o2)C1 (stereo not given) | – | inconclusive: 29.1 µM [activator, single point] | –
37 | C/C(Cl)=C\Cn1c(N2CCCCCC2)nc2c1c(=O)n(C)c(=O)n2C | inconclusive: 111% | – | –
38 | CC(Sc1nnc(-c2ccccc2F)n1C1CC1)C(=O)NC(N)=O (stereo not given) | – | inconclusive: 18.4 µM [activator, single point] | –
39 | CC1CCCC(C)N1C(=C(Cl)Cl)C(=C1SCCS1)[N+](=O)[O-] (stereo not given) | – | inconclusive: 18.4 µM [falling, single point] | –
40 | O=C(CSc1nccn1-c1cccc(Cl)c1)Nc1ccc2c(c1)OCCO2 | – | inconclusive: 29.1 µM [activator, single point] | –
41 | Cc1cc(C(C)(C)C)cc(S(=O)(=O)Nc2ccc(C(=O)O)cc2)c1C | inconclusive: -5.05% | – | –
42 | CCOc1ccc(Cc2nc(-c3nonc3N)no2)cc1OCC | – | inconclusive: 2.31 µM [activator, partial curve] | –
43 | COc1cc(C(C)=O)ccc1OC(=O)C(C)N1C(=O)c2ccccc2C1=O (stereo not given) | inconclusive: -5.51% | – | –
44 | CC1OC(C)(C)OC1C1CNc2nc(NC(=O)C(C)(C)C)[nH]c(=O)c2N1C(=O)c1cccnc1 (stereo not given) | – | inconclusive: 20.6 µM [activator, single point] | –
45 | CNC(=O)COc1ccc(Cl)c2cccnc12 | inconclusive: 59.6% | – | –
46 | C=CCOc1cccc(C(=O)NC(c2ccccc2)C(C)C)c1 (stereo not given) | inconclusive: 13.6% [at 9.22 µM] | – | –
47 | CC(C)=CCc1c2c(c3occ(-c4ccc(O)cc4)c(=O)c3c1O)C=CC(C)(C)O2 | – | inconclusive: 16.4 µM [cytotoxic, partial curve] | –
48 | CCOc1cc2[nH]c(=O)n(CCc3ccc(OC)c(OC)c3)c(=O)c2cc1OCC | inactive: 10.7% | – | –
49 | COC(=O)C(Cc1ccc(O)cc1)NC(=O)CCc1ccco1 (stereo not given) | – | inconclusive: 6.51 µM [rising, single point] | –
50 | COCCNc1oc(-c2ccc(F)cc2)nc1C#N | inconclusive: -14.9% | – | –

A draw from above in order of length of the SMILES, low to high.
Row | Compound | lipid storage change, negative = inhibition | Potency | outcome
19 | CN(C(=O)COc1ccc(Br)cc1Cl)C1CCCCC1 | inconclusive: -11.1% | – | –
49 | COC(=O)C(Cc1ccc(O)cc1)NC(=O)CCc1ccco1 (stereo not given) | – | inconclusive: 6.51 µM [rising, single point] | –
2 | CCC(c1nnnn1CCOC)N1CCN(c2cccc(C(F)(F)F)c2)CC1 (stereo not given) | inconclusive: 16.7% | – | –
34 | O=C(c1cc([N+](=O)[O-])ccc1Cl)N1CCN(c2ccc([N+](=O)[O-])cc2)CC1 | inconclusive: -44% | – | –

Additional entries

Row | Compound | lipid storage change, negative = inhibition | Potency | outcome
51 | Cn1nc(C(F)(F)F)c(C#N)c1N1CCN(c2cccc(C(F)(F)F)c2)CC1 | inconclusive: -0.954% | – | –
52 | O=C(Nc1ccc(N2CCOCC2)cc1)Nc1ccc2nc(-c3ccco3)c(-c3ccco3)nc2c1 | inconclusive: -56.6% | – | –
53 | Cc1ccc(C)c(C(=O)NCc2ccncc2)c1 | inconclusive: 43.5% | – | –
54 | O=C(O)c1cc(-c2cccs2)nc2ccc(F)cc12 | inconclusive: -51% | – | –
55 | CCN1CCN(C(=O)C2CCN(S(=O)(=O)N3CCC4(CC3)OCCO4)CC2)CC1 | – | inconclusive: 29.1 µM [activator, single point] | –
56 | CC(C)(CNc1ccc([N+](=O)[O-])cc1Cl)N1CCOCC1 | inconclusive: 50.6% | – | –
57 | CC(C)CN1CC(C(=O)O)CC1=O (stereo not given) | inconclusive: 39.9% | – | –
58 | CCC(CC)NC(=O)COC(=O)c1ccc(NS(=O)(=O)c2ccc3c(c2)OCCO3)cc1 | – | inconclusive: 6.51 µM [falling, single point] | –
59 | CCN1CCN(CC(O)COCC2COc3ccccc3O2)CC1 (stereo not given) | inconclusive: 10% | – | –
60 | Cc1ccc(N2CC(C(=O)OCc3nnc(-c4ccccc4)o3)CC2=O)cc1 (stereo not given) | inconclusive: 20% | – | –
61 | Fc1ccc(-n2cnnn2)c(F)c1 | inconclusive: -35% | – | –
62 | O=C(C1CCN(c2ncnc3c2nc2n3CCCCC2)CC1)N1CCCCC1 | – | inconclusive: 29.1 µM [falling, single point] | –
63 | COc1cc(C(=O)Nc2nc3ccc(C)cc3s2)ccc1OCc1c(C)noc1C | inconclusive: 30.2% | – | –
64 | O=C(NCc1ccc(F)cc1)c1ccc(Br)o1 | inconclusive: 4.82% | – | –
65 | CC(C)n1nc(C(=O)NNC(=O)c2ccc(OC(F)F)cc2)c2ccccc2c1=O | – | inconclusive: 0.13 µM [activator, full curve, poor fit] | –
66 | c1ccc2c(c1)CCN(c1nc3cc4c(cc3s1)OCO4)C2 | – | inconclusive: 1.84 µM [rising, partial curve] | –
67 | O=S(=O)(N/N=C/c1ccccc1F)c1ccccc1 | inconclusive: -8.21% | – | –
68 | Cn1c(=O)c2c(SCc3cccc(C(F)(F)F)c3)nc(-c3ccco3)nc2n(C)c1=O | inconclusive: -3.33% | – | –
69 | O=C(NCc1ccccc1)N(Cc1cc2cc3c(cc2[nH]c1=O)OCO3)CC1CCCO1 (stereo not given) | inconclusive: 47.5% | – | –
70 | O=C(NC(Nc1nc2ccc([N+](=O)[O-])cc2s1)(C(F)(F)F)C(F)(F)F)c1ccccc1Cl | – | active: 5.8 µM | –
71 | Cc1ccc(S(=O)(=O)N2CCN(C(=O)CSc3ccc(Cl)cc3)CC2)cc1 | inactive: -23.2% | – | –
72 | CCc1ccc2[nH]c(O)c(N=Nc3nc(-c4ccccc4)cs3)c2c1 | – | inconclusive: 20.6 µM [falling, partial curve, poor fit] | –
73 | COC1=C/C(=C/c2c(N)n3nc(CC(=O)N4CCCCC4)sc3nc2=O)C=CC1=O | – | active: 14.6 µM | –
74 | Cc1nc(Nc2nc3ccccc3o2)nc(C)c1C(=O)Nc1ccc(F)cc1 | – | inconclusive: 0.0058 µM [falling, full curve, poor fit] | –
75 | COc1ccc(-c2cc3ccc(OC)cc3cn2)cc1 | – | inconclusive: 0.058 µM [activator, full curve] | –
